Data reported in patent publication US9623016B2, “Antibacterial compounds” (Emergent Virology LLC, priority 2013, dated 2017).
Some of these results come from one statement about several compounds together. At least one compound was matched to its structure with a doubt left.

Tested on: Staphylococcus aureus USA300
Settings: 100 mg/kg UV-5 orally BID; water control 6 days
Experimental: The challenge inoculum included 6.13e4 cfu USA300+3% Hog mucin which causes bacteremia/sepsis within 24-72 h. […] The mice used were 6-8 week old female BALB/c mice in groups of 10. One group of 5 mice was also included to examine the potential toxicity of 3% hog mucin. Endpoint was day 10 post infection, death, or euthanasia Animals displaying severe illness as determined by >30% weight loss, extreme lethargy, or paralysis were euthanized. Observation included daily weight, health checks, and temperatures starting with the initiation of dosing until 10 days post challenge.

Structure (SMILES): [N-]=[N+]=Nc1ccc(NCCCCCCN2C[C@H](O)[C@@H](O)[C@H](O)[C@H]2CO)c([N+](=O)[O-])c1 [UV-5, N—(N-{4′-azido-2′-nitrophenyl}-6-aminohexyl)deoxynojirimycin]
- mean time-to-death (MTD): > 13 days
